Source: article PMC12802155
Results are given in words; binding and its absence hold for the method and conditions named. In cells and extracts the contact can be indirect. These calls come from enrichment with a bait or labelling near it, and not all partners need be listed.

By UniProt entry, the sequences of proteins in these tests, tags left out.
UniProt P08727: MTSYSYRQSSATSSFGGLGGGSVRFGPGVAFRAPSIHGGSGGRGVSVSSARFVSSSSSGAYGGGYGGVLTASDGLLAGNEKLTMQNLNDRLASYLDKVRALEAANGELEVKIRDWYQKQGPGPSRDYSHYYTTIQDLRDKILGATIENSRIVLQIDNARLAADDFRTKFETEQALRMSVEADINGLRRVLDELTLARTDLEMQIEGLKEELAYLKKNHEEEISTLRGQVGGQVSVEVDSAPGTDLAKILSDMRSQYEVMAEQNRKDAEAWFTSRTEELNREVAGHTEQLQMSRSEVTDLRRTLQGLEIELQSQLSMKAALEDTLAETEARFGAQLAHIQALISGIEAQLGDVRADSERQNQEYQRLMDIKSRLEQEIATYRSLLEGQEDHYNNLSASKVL
UniProt P35579: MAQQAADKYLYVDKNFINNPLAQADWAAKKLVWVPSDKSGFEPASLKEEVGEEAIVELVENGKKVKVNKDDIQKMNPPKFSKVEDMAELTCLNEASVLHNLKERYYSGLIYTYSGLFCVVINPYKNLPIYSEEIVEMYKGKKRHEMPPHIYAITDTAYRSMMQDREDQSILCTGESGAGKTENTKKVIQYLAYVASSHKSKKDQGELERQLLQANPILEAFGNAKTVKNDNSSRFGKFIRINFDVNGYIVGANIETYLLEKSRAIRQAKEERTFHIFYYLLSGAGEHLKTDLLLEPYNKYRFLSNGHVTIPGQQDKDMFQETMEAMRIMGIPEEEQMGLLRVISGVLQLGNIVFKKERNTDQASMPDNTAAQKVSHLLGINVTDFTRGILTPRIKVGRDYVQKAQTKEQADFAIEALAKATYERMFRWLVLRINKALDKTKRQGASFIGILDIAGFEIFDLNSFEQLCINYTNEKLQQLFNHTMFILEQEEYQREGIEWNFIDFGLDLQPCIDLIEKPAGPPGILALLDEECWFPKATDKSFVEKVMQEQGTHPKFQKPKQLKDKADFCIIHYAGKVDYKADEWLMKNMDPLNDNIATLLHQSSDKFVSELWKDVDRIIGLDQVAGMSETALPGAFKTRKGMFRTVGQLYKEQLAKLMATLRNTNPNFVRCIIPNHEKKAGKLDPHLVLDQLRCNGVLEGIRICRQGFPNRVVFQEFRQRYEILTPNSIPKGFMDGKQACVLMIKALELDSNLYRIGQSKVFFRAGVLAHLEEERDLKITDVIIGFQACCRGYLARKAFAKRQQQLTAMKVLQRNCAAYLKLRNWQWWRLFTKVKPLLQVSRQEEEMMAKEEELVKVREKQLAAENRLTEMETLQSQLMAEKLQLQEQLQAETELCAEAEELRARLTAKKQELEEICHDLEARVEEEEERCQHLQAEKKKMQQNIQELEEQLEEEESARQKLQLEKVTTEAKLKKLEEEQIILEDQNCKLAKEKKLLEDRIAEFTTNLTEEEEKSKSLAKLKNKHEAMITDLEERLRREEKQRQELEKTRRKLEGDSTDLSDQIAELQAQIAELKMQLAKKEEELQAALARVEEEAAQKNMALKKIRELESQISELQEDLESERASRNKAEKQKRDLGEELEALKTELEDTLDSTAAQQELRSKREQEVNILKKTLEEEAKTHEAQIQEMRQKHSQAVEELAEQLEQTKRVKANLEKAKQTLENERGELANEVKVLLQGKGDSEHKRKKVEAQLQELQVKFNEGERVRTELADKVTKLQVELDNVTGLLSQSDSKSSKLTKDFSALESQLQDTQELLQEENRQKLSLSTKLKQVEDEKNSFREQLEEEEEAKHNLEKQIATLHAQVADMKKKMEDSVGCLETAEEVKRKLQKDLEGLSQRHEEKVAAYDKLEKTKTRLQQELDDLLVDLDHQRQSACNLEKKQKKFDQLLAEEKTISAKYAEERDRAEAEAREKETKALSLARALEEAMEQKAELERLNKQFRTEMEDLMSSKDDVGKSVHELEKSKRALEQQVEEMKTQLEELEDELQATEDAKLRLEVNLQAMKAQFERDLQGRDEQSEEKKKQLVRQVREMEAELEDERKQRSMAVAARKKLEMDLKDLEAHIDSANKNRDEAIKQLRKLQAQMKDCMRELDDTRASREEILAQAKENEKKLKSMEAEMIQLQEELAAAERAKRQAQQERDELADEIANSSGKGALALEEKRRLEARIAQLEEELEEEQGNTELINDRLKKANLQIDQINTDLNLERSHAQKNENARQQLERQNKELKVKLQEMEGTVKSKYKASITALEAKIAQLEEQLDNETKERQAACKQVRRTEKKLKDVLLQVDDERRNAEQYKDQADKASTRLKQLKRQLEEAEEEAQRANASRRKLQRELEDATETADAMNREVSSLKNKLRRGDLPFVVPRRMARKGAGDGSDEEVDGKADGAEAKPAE

Molecular target: Flag-tagged KRT19 (keratin 19) (UniProt P08727)
Experiment: affinity purification with mass spectrometry; total extracts of A549 cells stably overexpressing Flag-KRT19 immunoprecipitated with Flag tag antibody or control IgG, SDS-PAGE, silver stain, bands of interest excised, nano-UPLC Q Exactive plus MS

binding: binds
Substance: myosin heavy chain 9 (MYH9), endogenous (from UniProt P35579 1-1960)
